Values from PubChem BioAssay AID1259308 (NCATS, 2017).

Aim: 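Genes whose loss raises luciferase production in HEK293 cells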 (primary screen)
System: human HEK293 embryonic kidney cells stably expressing firefly luciferase (HEK-CMV-Luc2-Hygro)
Knock-down reagent: single siRNA against human genes, 0.8 pmol siRNA per well
Duration: 72 h
Measured: 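Luciferase light (ONE-Glo) measured on one replicate plate set and viability (CellTiter-Glo) on the other, scaled to a negative control siRNA, with robust z-scores and luciferase per cell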
Direction: total luciferase, z-score and total luciferase, % of control: higher = more reporter protein produced
Call rule: 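An siRNA counts as active if its total luciferase robust z-score exceeds 3; genes with two or more such siRNAs out of three were retested with fresh siRNAs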
Calls: active = raised luciferase; inactive = no rise
In all, the deposit lists about 59,000 reagents; below is a random part of them. Of all reagents, about 1,510 (2.6%) are marked active. 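Calls use total luciferase alone and ignore viability, so some active siRNAs may act by altering cell number.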 The numbers tell different reagents against one gene apart. Not all columns of the deposit are shown.

{"gene": "ALG9 (GeneID 79796)", "reagent": 1, "total luciferase, z-score": -1.13, "total luciferase, % of control": 59.5, "outcome": "inactive"}
{"gene": "ALG9 (GeneID 79796)", "reagent": 2, "total luciferase, z-score": -1.19, "total luciferase, % of control": 58.1, "outcome": "inactive"}
{"gene": "ALG9 (GeneID 79796)", "reagent": 3, "total luciferase, z-score": -0.049, "total luciferase, % of control": 80.9, "outcome": "inactive"}
{"gene": "ARF4 (GeneID 378)", "reagent": 1, "total luciferase, z-score": -0.118, "total luciferase, % of control": 79.5, "outcome": "inactive"}
{"gene": "ARF4 (GeneID 378)", "reagent": 2, "total luciferase, z-score": 1.15, "total luciferase, % of control": 105, "outcome": "inactive"}
{"gene": "ARF4 (GeneID 378)", "reagent": 3, "total luciferase, z-score": 0.946, "total luciferase, % of control": 101, "outcome": "inactive"}

Next part; the last 2 above are carried over.
{"gene": "ARF4 (GeneID 378)", "reagent": 2, "total luciferase, z-score": 1.15, "total luciferase, % of control": 105, "outcome": "inactive"}
{"gene": "ARF4 (GeneID 378)", "reagent": 3, "total luciferase, z-score": 0.946, "total luciferase, % of control": 101, "outcome": "inactive"}
{"gene": "SACK1G (GeneID 644815)", "reagent": 1, "total luciferase, z-score": 1.19, "total luciferase, % of control": 106, "outcome": "inactive"}
{"gene": "SACK1G (GeneID 644815)", "reagent": 2, "total luciferase, z-score": 4.78, "total luciferase, % of control": 177, "outcome": "active"}
{"gene": "SACK1G (GeneID 644815)", "reagent": 3, "total luciferase, z-score": 0.155, "total luciferase, % of control": 85, "outcome": "inactive"}
{"gene": "ZUP1 (GeneID 221302)", "reagent": 1, "total luciferase, z-score": -0.231, "total luciferase, % of control": 77.3, "outcome": "inactive"}
{"gene": "ZUP1 (GeneID 221302)", "reagent": 2, "total luciferase, z-score": -0.0398, "total luciferase, % of control": 81.1, "outcome": "inactive"}
{"gene": "ZUP1 (GeneID 221302)", "reagent": 3, "total luciferase, z-score": 0.578, "total luciferase, % of control": 93.4, "outcome": "inactive"}
